Drawing on PMC7819943, “Rice protein-binding microarrays: a tool to detect cis-acting elements near promoter regions in rice”, this text covers binding signal for 42 sequences.

Sequences of proteins named here, by UniProt entry; tags and fusion partners are left off.
UniProt Q0JBA9, entry or part of it: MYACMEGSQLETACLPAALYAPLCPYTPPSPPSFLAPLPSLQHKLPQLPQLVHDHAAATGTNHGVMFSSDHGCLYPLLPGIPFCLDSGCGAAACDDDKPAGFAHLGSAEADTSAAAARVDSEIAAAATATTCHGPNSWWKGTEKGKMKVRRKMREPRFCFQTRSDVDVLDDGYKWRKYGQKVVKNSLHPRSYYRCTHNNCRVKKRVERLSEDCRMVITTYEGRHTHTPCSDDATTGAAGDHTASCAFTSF

This is one part of the list.

The test addresses OsWRKY34 (Oryza sativa, UniProt Q0JBA9 1-250). Briefly: protein-binding microarray (RPBM); PBS, 2% BSA, 51.3 ng/ul salmon testes DNA, 50 uM zinc acetate, 200 nM TF, 25 C, 1 h; high values mean tight binding. The following applies: protein: recombinant; tags: N-terminal polyhistidine and DsRed monomer fusion (pET32a); label: CyDye5-dUTP incorporated in the synthesized complementary strand; 3' TTTTT single-stranded linker to array surface; dsDNA, one strand shown. The essentials: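 The binding signal is fluorescence intensity per array feature (arbitrary units). Readings came from an Axon 4000B scanner after a washed, 2% BSA-blocked, double-stranded custom Agilent array had been incubated for 1 h at 25 °C with 200 nM protein and 50 µM zinc acetate. The protein was a Ni–NTA-purified transcription factor fused N-terminally to polyhistidine and DsRed, expressed in E. coli BL21-CodonPlus.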
Take “CTCCCTGTTCGTTCGTGACGGCTCGGCTTCCTCTCCGCTCCGGAGTCACCTAGTGCAG”: the binding signal is 9910 fluorescence intensity (a.u.).

Turning to “CCTCCCTCCTCTCCTCTCCTCGCTTCCGGGTTCCGCCGCGCGGAGTCACCTAGTGCAG”, the binding signal was 8430 fluorescence intensity (a.u.).

With “ACACTACCATTGATGTCTGTTTGGTTTTCACATTTTTTACCGGAGTCACCTAGTGCAG”, the binding signal was 14300 fluorescence intensity (a.u.).

“CCCCGTCCCGTCCGTCGCCGACGACGCTCACCCTCGCACGCGGAGTCACCTAGTGCAG”: the binding signal was 8600 fluorescence intensity (a.u.).

For the sequence “CTTTTTATCTCGTTTACTGATTTTTGTTGTATATCACACACGGAGTCACCTAGTGCAG”, the binding signal is 13200 fluorescence intensity (a.u.).

“AATAAGACGAAAAGTCAAACGTTTGTCAAAAAGTCAACGGCGGAGTCACCTAGTGCAG”: the binding signal was 8290 fluorescence intensity (a.u.).

Turning to “CTCACCTCTTGCAATTGCTGCTACTTGATTAATCATAATACGGAGTCACCTAGTGCAG”, the binding signal is 8580 fluorescence intensity (a.u.).

As to “ACACTCTTTGGCCATTAATTGTCTTTTTAGAAGATCCTTTCGGAGTCACCTAGTGCAG”, the binding signal was 8940 fluorescence intensity (a.u.).

Take “CGACACGAACAAGCATGCCTCCGCTTTCTGAGAACGTTTACGGAGTCACCTAGTGCAG”: the binding signal is 8170 fluorescence intensity (a.u.).

On to “TTCCCAACCCCTCTCTCTCGTTTTCCGCACGCACGCTTTTCGGAGTCACCTAGTGCAG”, for which the binding signal is 9830 fluorescence intensity (a.u.).

In the case of “TGTAGGTTTGTCATCTTGCAGAATTTTTTAGTTTTAATTTCGGAGTCACCTAGTGCAG”, the binding signal is 10500 fluorescence intensity (a.u.).

For the sequence “ATTCGGTACAGTACTACAGTGCTCGGGTGTATTTTTGCAACGGAGTCACCTAGTGCAG”, the binding signal is 8650 fluorescence intensity (a.u.).

“GACTGATTTGTTTTTTTTTTCTCCCGGTTTTTTCGACGGACGGAGTCACCTAGTGCAG”: the binding signal is 9270 fluorescence intensity (a.u.).

Turning to “GGAGGATGGGTGGGTGGGCTCCACCGCTCCATACGGCGAACGGAGTCACCTAGTGCAG”, the binding signal was 8270 fluorescence intensity (a.u.).

Regarding “CACAGAGTCACAGACCAGTCCACCACCAACTACAGTTGCACGGAGTCACCTAGTGCAG”, the binding signal was 10900 fluorescence intensity (a.u.).

Take “GACGAACGGTCAAACATGTTTAAAAAAGTCAACGCTGTCACGGAGTCACCTAGTGCAG”: the binding signal was 12900 fluorescence intensity (a.u.).

With “TCTCATGTCACCACCGCCGGCCGCTAGTGCCTTTCTGGGACGGAGTCACCTAGTGCAG”, the binding signal is 8750 fluorescence intensity (a.u.).

On to “GAAGCCACTCGCCACTGCAAAGCGCTCTCTCTCTCTCTCTCGGAGTCACCTAGTGCAG”, for which the binding signal was 8570 fluorescence intensity (a.u.).

On to “TTCTTTTCTCCATTTTTACCTGTCTGACAGGATCTAGTATCGGAGTCACCTAGTGCAG”, for which the binding signal is 8550 fluorescence intensity (a.u.).

Regarding “AGGTTCCATTCAGAGTGTATGAATCGCTGTTGGTTCTTATCGGAGTCACCTAGTGCAG”, the binding signal was 8890 fluorescence intensity (a.u.).

Consider “TTTTGAAATCCGCGCCTACTTTTTTCTTGTCTCTTCTGTGCGGAGTCACCTAGTGCAG”, for which the binding signal is 8400 fluorescence intensity (a.u.).

Consider “TTTTTTTGTAATCCAGATCGTGCCAGTTCTCCTATTATTTCGGAGTCACCTAGTGCAG”, for which the binding signal is 13000 fluorescence intensity (a.u.).

Consider “TGTTTCTGTCCTCACCCACATGGTTTTTTTAGCTATATTTCGGAGTCACCTAGTGCAG”, for which the binding signal was 11700 fluorescence intensity (a.u.).

As for “GTTATCTCTTTTTTCATTTACCTTTGTTTTTTTTCTGTCGCGGAGTCACCTAGTGCAG”, the binding signal was 11300 fluorescence intensity (a.u.).

On to “ATGCCATTTCAATAGTGAACTTAGGTTATTTTGGCTTCAACGGAGTCACCTAGTGCAG”, for which the binding signal is 8340 fluorescence intensity (a.u.).

With “CATGTAAGTATGGGCCGCCCGGATCTCGCATCTCCTCTTACGGAGTCACCTAGTGCAG”, the binding signal is 8460 fluorescence intensity (a.u.).

“ATGCTGTTTAATATGTGTGGATATATTCTATGTGGTCTGCCGGAGTCACCTAGTGCAG”: the binding signal was 8950 fluorescence intensity (a.u.).

Consider “CCCTTTAAACTTTCAACTTTTCCGTTACATTAAATTTTGGCGGAGTCACCTAGTGCAG”, for which the binding signal was 9360 fluorescence intensity (a.u.).

For the sequence “CGTACCTTCTCTGTTGAATCTCCTGTTCGCTTTTCTGTTACGGAGTCACCTAGTGCAG”, the binding signal was 9160 fluorescence intensity (a.u.).

Turning to “TGTATATATAGGTTCTGTTTGGGGAGAGTTTCTAGTTGCTCGGAGTCACCTAGTGCAG”, the binding signal is 8230 fluorescence intensity (a.u.).

For “GTCACCATCGCTATCCAAGTAGGTTGTTCCAACATAACCCCGGAGTCACCTAGTGCAG”, the binding signal is 8360 fluorescence intensity (a.u.).

Regarding “ACTTGCAACTTTGCTTTGCTCCTACTCAGTGTTCACGGATCGGAGTCACCTAGTGCAG”, the binding signal is 9630 fluorescence intensity (a.u.).

For the sequence “ATTATCCTCTTGTTTTTCAACTGGAATGAACCACCAACAACGGAGTCACCTAGTGCAG”, the binding signal is 9790 fluorescence intensity (a.u.).

On to “CTCTTCTTTCTCTCTGAGCCCGTGTGTGTTTCTTGGGGCTCGGAGTCACCTAGTGCAG”, for which the binding signal is 11600 fluorescence intensity (a.u.).

As to “GCCGTTTGCCTTTGTCCATTGAATGCTTTTGTTGTGGTCGCGGAGTCACCTAGTGCAG”, the binding signal was 8280 fluorescence intensity (a.u.).

In the case of “TGCATGCAGATTTGCATCATGTTAAATAAATCAAATTAAACGGAGTCACCTAGTGCAG”, the binding signal is 13400 fluorescence intensity (a.u.).

Regarding “ACCCCGTTCCCGTTTCCATTTTCACGCCACCCCACCACCCCGGAGTCACCTAGTGCAG”, the binding signal was 10500 fluorescence intensity (a.u.).

In the case of “GGCTTCCTACTGCATTCTCTGTCTCATGCAATCTCCATTACGGAGTCACCTAGTGCAG”, the binding signal was 13300 fluorescence intensity (a.u.).

For the sequence “CCCTTCGTTCCCTGCCTACTACGCAACGCACGGCTGCTTTCGGAGTCACCTAGTGCAG”, the binding signal was 8500 fluorescence intensity (a.u.).

For “TATTTCAATTCTTGCGTTATTCTATTTTTTGTGTTTTTCCCGGAGTCACCTAGTGCAG”, the binding signal was 12700 fluorescence intensity (a.u.).

Take “TGTTGCAGCCTTTTGTGTTGTTCAACTTTATACTAGACAACGGAGTCACCTAGTGCAG”: the binding signal is 9310 fluorescence intensity (a.u.).

For “CGGCGCGGCTGAGGAGGGGCGGCGGGAGGAAGGGGAAGGACGGAGTCACCTAGTGCAG”, the binding signal is 10700 fluorescence intensity (a.u.).
